Data as given in PubChem BioAssay AID1508597 (Cure First, 2020).
Aim: 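Knock-downs altering ovarian cancer cell survival with or without PARP inhibitor rucaparib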 (primary screen). System: human ovarian carcinoma lines grown from tumours: OCI-P5x (papillary serous) and OCI-C5x (clear cell). Reagents: siRNA pool against human genes, 1.25 pmol siRNA per well. Timing: 72 h or 96 h, depending on the cell culture. Conditions: rucaparib 20 µM (about IC30) or vehicle, present until read-out. Read-out: 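Luminescent ATP-based viability assay read 72 or 96 h after transfection, depending on culture, given as normalised percent viability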. Scale: viability, normalised: higher = more viable cells remaining. Call rule: 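a well counts as a hit if its normalised viability is under 80 percent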. Calls: active = viability under 80%; inactive = viability 80% or more.
The whole screen tested about 2,100 reagents; this is an unselected part. 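Calls flag viability under 80% in either arm, not effects specific to rucaparib; the reference for percent is not stated.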 Unmarked entries are inactive. No sequences are given here. The record does not give: the 100% reference.

L3MBTL4 (L3MBTL histone methyl-lysine binding protein 4), rucaparib or vehicle Rucaparib, cell line OCI-C5x (clear cell), technical replicate 1 gave viability, normalised (%) = 41.6 (active).
L3MBTL4 (L3MBTL histone methyl-lysine binding protein 4), rucaparib or vehicle Rucaparib, cell line OCI-C5x (clear cell), technical replicate 2 gave viability, normalised (%) = 40.6 (active).
With L3MBTL4 (L3MBTL histone methyl-lysine binding protein 4), rucaparib or vehicle Rucaparib, cell line OCI-C5x (clear cell), technical replicate 3, the entry reads viability, normalised (%) = 38 (active).
L3MBTL4 (L3MBTL histone methyl-lysine binding protein 4), rucaparib or vehicle Rucaparib, cell line OCI-P5x (serous), technical replicate 1 showed viability, normalised (%) = 60.1 (active).
With L3MBTL4 (L3MBTL histone methyl-lysine binding protein 4), rucaparib or vehicle Rucaparib, cell line OCI-P5x (serous), technical replicate 2 the deposit lists viability, normalised (%) = 67.4 (active).
L3MBTL4 (L3MBTL histone methyl-lysine binding protein 4), rucaparib or vehicle Rucaparib, cell line OCI-P5x (serous), technical replicate 3 gave viability, normalised (%) = 62 (active).
For L3MBTL4 (L3MBTL histone methyl-lysine binding protein 4), rucaparib or vehicle Vehicle, cell line OCI-C5x (clear cell), technical replicate 1, the entry reads viability, normalised (%) = 37 (active).
For L3MBTL4 (L3MBTL histone methyl-lysine binding protein 4), rucaparib or vehicle Vehicle, cell line OCI-C5x (clear cell), technical replicate 2, the values are viability, normalised (%) = 59.5 (active).
For L3MBTL4 (L3MBTL histone methyl-lysine binding protein 4), rucaparib or vehicle Vehicle, cell line OCI-C5x (clear cell), technical replicate 3, the entry reads viability, normalised (%) = 41.9 (active).
For L3MBTL4 (L3MBTL histone methyl-lysine binding protein 4), rucaparib or vehicle Vehicle, cell line OCI-P5x (serous), technical replicate 1, the entry reads viability, normalised (%) = 65.7 (active).
With L3MBTL4 (L3MBTL histone methyl-lysine binding protein 4), rucaparib or vehicle Vehicle, cell line OCI-P5x (serous), technical replicate 2 the deposit lists viability, normalised (%) = 66.4 (active).
L3MBTL4 (L3MBTL histone methyl-lysine binding protein 4), rucaparib or vehicle Vehicle, cell line OCI-P5x (serous), technical replicate 3 showed viability, normalised (%) = 70.9 (active).
